Test results: article PMC3640759 (Molecular and biochemical parasitology, 2013)
pIC50: −log10 of the molar value.

Tested on: P. falciparum 3D7 strain stage III–V gametocytes
Assay: alamarBlue gametocyte viability assay, 1,536-well plate format
Assay type: cell-based
Conditions: Plasmodium falciparum, 3D7, 72 h, read-out: IC50 (gametocyte assay)

pIC50: 5.61
Compound: Clc1ccccc1C(c1ccccc1)(c1ccccc1)n1ccnc1 [Clotrimazole]
